{"source": "patent US20080114063A1", "about": "“Use of 2,5-Dihydroxybenzene Derivatives for the Treatment of Tissue Reactive Diseases” (Action Medicines, priority 2006, published 2008)", "key": {"[1]": {"test_system": "Nakagawa angioblastoma", "assay": "Topical cream treatment of Nakagawa angioblastoma (hemangioblastoma) in a child", "format": "in vivo, human", "conditions": "cream 2.5%, twice a day, 1 month, face of a child"}, "[2]": {"test_system": "infantile hemangioma", "assay": "Topical cream treatment of infantile hemangioma in a child", "format": "in vivo, human", "conditions": "cream 2.5%, twice a day for 3 months, face of a child"}}, "note": "For at least one compound, name, drawing or mass did not settle the structure.", "data": [{"smiles": "O=S(=O)(O)c1cc(O)ccc1O", "note": "[DHBS, 2,5-dihydroxybenzene sulfonic acid]", "values": [{"measurement": "intensity of the reddish coloration caused by the lesion", "setting": "[1]", "result": "reduction in the intensity of the reddish coloration"}, {"measurement": "recovery of the hemangioma lesion", "setting": "[2]", "result": "substantial recovery of the lesion"}]}]}
